Screen size: about 300,000 compounds; about 5,400 (1.8%) were called active. The inconclusive results got no clear call from the source; some entries with a clear call stand among them for comparison. Calls come from the whole dose curve; tested in HEK293 cells. Potencies beside an inconclusive call are fits to weak or partial responses and may not hold up.
test: qHTS for inhibitors of binding or entry into cells for Marburg Virus; conditions: Marburg virus pseudotyped entry inhibition, cell reporter; activity change, negative = inhibition: at 37.8 µM (top of the series) unless noted
% is set by controls: 0 for no effect and ±100 for the full control effect; potency is the fitted concentration of half-maximal effect.

| Compound | Potency | activity change, negative = inhibition |
| --- | --- | --- |
| Cc1ccc(S(=O)(=O)NCCSc2nnnn2-c2ccc(Cl)c(C(=O)O)c2)cc1 | inconclusive: 0.562 µM [activator, full curve, poor fit] |  |
| COc1ccc(C(CNc2ccc(C(F)(F)F)cn2)N(C)C)cc1OC (centres undefined) | inconclusive: 35.5 µM [inhibitor, single point] |  |
| COc1ccc(CNC(=O)COC(=O)C2=Cc3ccccc3OC2)cc1 |  | inactive: -0.272% [at 46.1 µM] |
| CC(=O)Nc1ccc(C2Nc3c(C)cc(C)cc3-c3cc(C)nn32)cc1 (centres undefined) | inconclusive: 35.5 µM [inhibitor, single point] |  |
| O=C(C1CCCCC1)N1C[C@@H](O)[C@@H](n2cc(C3CC3)nn2)C[C@@H]1c1ccccc1 | inconclusive: 0.007 µM [activator, full curve, poor fit] |  |
| Nc1nonc1OCCc1ccccc1 |  | inactive: 6.39% |
| COc1ccc(NC2Oc3cc4c(cc3C(c3cc(OC)c(OC)c(OC)c3)C2C)OCO4)cc1 (centres undefined) | inconclusive: 8.91 µM [inhibitor, partial curve, poor fit] |  |
| COc1ccc(S(=O)(=O)NC(C)C(=O)NCCN2CCOCC2)cc1Cl (centres undefined) | inconclusive: 7.94 µM [inhibitor, partial curve, poor fit] |  |
| CC1Sc2ccc(S(=O)(=O)N(C)Cc3ccccc3)cc2NC1=O (centres undefined) |  | inactive: -1.26% [at 46.1 µM] |
| COc1ccccc1-c1cc(C(F)(F)F)n2ncc(S(=O)(=O)c3ccccc3)c2n1 | inconclusive: 18.3 µM [inhibitor, single point] |  |
| O=[N+]([O-])c1ccc(OCC(O)CN2CCN(c3ccccc3F)CC2)cc1 (centres undefined) | inconclusive: 2.82 µM [activator, single point] |  |
| Cc1ccc(S(=O)(=O)N2CCC(C(=O)NCC3CC3)CC2)cc1 |  | inactive: 4.88% [at 46.1 µM] |
| O=C(COc1ccccc1-c1nc(-c2ccccc2)no1)Nc1ccccc1[N+](=O)[O-] | inconclusive: 12.6 µM [inhibitor, partial curve, poor fit] |  |
| COc1cc(N)c(C(O)c2nccc3cc(OC)c(OC)cc23)cc1OC (centres undefined) | inconclusive: 11.2 µM [inhibitor, partial curve, poor fit] |  |
| COc1cc(/C=C/C(=O)c2ccc3c(c2)OCO3)cc(Cl)c1O | inconclusive: 11.2 µM [inhibitor, single point] |  |
| CC(=O)NCc1ccc(S(=O)(=O)N2CCN(c3ccccn3)CC2)cc1 | inconclusive: 35.5 µM [activator, single point] |  |
| O=c1[nH]sc2cc(F)ccc12 | inconclusive: 10 µM [inhibitor, partial curve, poor fit] |  |
| CC(C)[C@H](NC(=O)c1ccco1)C(=O)N(C)Cc1ccc(C(F)(F)F)cc1 | inconclusive: 7.08 µM [inhibitor, partial curve, poor fit] |  |
| O=C(Cc1ccc(Cl)cc1)NCCS(=O)c1ccc(Cl)cc1 (centres undefined) | inconclusive: 2.82 µM [activator, single point] |  |
| COCC(C)n1c(SCC(=O)NNC(=O)c2ccccc2)nc2ccccc2c1=O (centres undefined) |  | inactive: -5.52% |
| O=C1CC(c2ccccc2Cl)=NN(c2ncnc3ccccc23)C1=O |  | inactive: -14.4% |
| CCCc1cc(=O)n2[nH]c(NCc3ccccc3OC)nc2n1 | inconclusive: 0.355 µM [activator, full curve, poor fit] |  |

| Compound | Potency | activity change, negative = inhibition |
| --- | --- | --- |
| N#Cc1ccc(OCc2ccc(C(=O)O)o2)cc1 |  | inactive: 13.7% [at 46.1 µM] |
| COc1ccc(OCCn2nnc(-c3ccc(Cl)cc3)n2)cc1 | inconclusive: 14.1 µM [activator, single point] |  |
| Cc1cc(C)cc(OCC(=O)NCC2(N(C)C)CCCCC2)c1 | inconclusive: 35.5 µM [inhibitor, single point] |  |
| Cc1cc(C)nc(SCCC(=O)Nc2ccc(F)cc2)n1 | inconclusive: 0.282 µM [inhibitor, partial curve, poor fit] |  |
| CN(C)c1ccc(/C=N/NC(=O)c2sccc2-n2cccc2)cc1 |  | inactive: 18.8% [at 46.1 µM] |
| Cc1onc(-c2c(F)cccc2Cl)c1C(=O)Nc1cc(S(=O)(=O)N2CCCCC2)ccc1O | inconclusive: 14.1 µM [inhibitor, single point] |  |
| CCOC(=O)C1=C(CS(=O)(=O)c2ccc(F)cc2)NC(=O)NC1c1ccc(OCC)c(OC)c1 (centres undefined) |  | inactive: 17% [at 46.1 µM] |
| COc1ccccc1NC(=O)c1ccccc1C(=O)Nc1ccccc1OC |  | inactive: 4.43% |
| Cc1ccccc1NC(=O)Cc1nc(-c2ccc3ccccc3c2)cs1 |  | inactive: 11.3% |
| COc1ccc(/C=N/NC(=O)c2c(C)nc3ccccn23)cc1[N+](=O)[O-] |  | inactive: 15.4% [at 46.1 µM] |
| COc1ccc(N2CCN(C(=O)COC(=O)CNC(=O)c3ccc(C)cc3)CC2)cc1 | inconclusive: 35.5 µM [activator, partial curve, poor fit] |  |
| CCc1ccc(NC(=O)c2cc3nc(-c4ccc(C)cc4)cc(C(F)(F)F)n3n2)cc1 |  | inactive: -20.1% [at 46.1 µM] |
| COC(=O)C1CCN(C(=O)Cc2ccc(C)cc2)CC1 | inconclusive: 5.62 µM [activator, partial curve] |  |
| COC(=O)C1=CN(c2ccc(F)cc2)C=C(C(=O)OC)C1c1ccc(O)cc1 |  | inactive: 11.3% [at 46.1 µM] |
| COc1ccccc1OCCn1cc(C=O)c2ccccc21 | inconclusive: 35.5 µM [inhibitor, partial curve, poor fit] |  |
| COc1ccccc1C(C)NC(=O)CCC(=O)N1CCN(S(=O)(=O)c2ccc(Cl)cc2)CC1 (centres undefined) | inconclusive: 35.5 µM [inhibitor, partial curve, poor fit] |  |
| OCCN1CCN(CC(O)COCC2COc3ccccc3O2)CC1 (centres undefined) | inconclusive: 14.1 µM [activator, single point] |  |
| COCCNC(=O)Cc1c(C)c2cc3c(cc2oc1=O)OC(C)(C)CC3 |  | inactive: -0.661% [at 46.1 µM] |
| Cc1ccccc1NC(=S)N1CCCC(c2nc3ccccc3[nH]2)C1 (centres undefined) |  | inactive: -2.72% [at 14.2 µM] |
| COc1ccc(NC(=O)COc2ccc(CNCCCN3CCOCC3)cc2OC)cc1 | inconclusive: 14.6 µM [inhibitor, partial curve, poor fit] |  |
| Cc1cccc2cc(C(c3nnnn3Cc3ccccc3)N3CCCc4ccccc43)c(=O)[nH]c12 (centres undefined) | inconclusive: 11.6 µM [inhibitor, partial curve, poor fit] |  |
| CCN1CCN(C(=O)C2CCN(Cc3nc(-c4cccc(Cl)c4)oc3C)CC2)CC1 |  | inactive: 3.04% |

Reprinted from the listing for reference:

| Compound | Potency | activity change, negative = inhibition |
| --- | --- | --- |
| O=C1CC(c2ccccc2Cl)=NN(c2ncnc3ccccc23)C1=O |  | inactive: -14.4% |
| CCCc1cc(=O)n2[nH]c(NCc3ccccc3OC)nc2n1 | inconclusive: 0.355 µM [activator, full curve, poor fit] |  |
| N#Cc1ccc(OCc2ccc(C(=O)O)o2)cc1 |  | inactive: 13.7% [at 46.1 µM] |
| COc1ccc(OCCn2nnc(-c3ccc(Cl)cc3)n2)cc1 | inconclusive: 14.1 µM [activator, single point] |  |
| Cc1cc(C)cc(OCC(=O)NCC2(N(C)C)CCCCC2)c1 | inconclusive: 35.5 µM [inhibitor, single point] |  |
| Cc1cc(C)nc(SCCC(=O)Nc2ccc(F)cc2)n1 | inconclusive: 0.282 µM [inhibitor, partial curve, poor fit] |  |
| CN(C)c1ccc(/C=N/NC(=O)c2sccc2-n2cccc2)cc1 |  | inactive: 18.8% [at 46.1 µM] |
| Cc1onc(-c2c(F)cccc2Cl)c1C(=O)Nc1cc(S(=O)(=O)N2CCCCC2)ccc1O | inconclusive: 14.1 µM [inhibitor, single point] |  |
| CCOC(=O)C1=C(CS(=O)(=O)c2ccc(F)cc2)NC(=O)NC1c1ccc(OCC)c(OC)c1 (centres undefined) |  | inactive: 17% [at 46.1 µM] |
| COc1ccccc1NC(=O)c1ccccc1C(=O)Nc1ccccc1OC |  | inactive: 4.43% |
| Cc1ccccc1NC(=O)Cc1nc(-c2ccc3ccccc3c2)cs1 |  | inactive: 11.3% |
| COc1ccc(/C=N/NC(=O)c2c(C)nc3ccccn23)cc1[N+](=O)[O-] |  | inactive: 15.4% [at 46.1 µM] |
